{"source": "patent US5599812A", "about": "“Tricyclic pyrrolopyrazine 5-HT3 -active compounds” (Adir Et Compagnie, priority 1993, dated 1997)", "origin": "cited, not measured here", "tested_on": "5-HT1B serotoninergic receptors", "settings": "Neale 1987; Macor 1990; cited from earlier work", "note": "At least one structure is not confirmed: it was looked up by name or label, or the drawing left a doubt."}
{"smiles": "CN1CCN(c2nc3cc(C(F)(F)F)ccc3n3cccc23)CC1", "note": "[4-(4-methylpiperazinyl)-7-(trifluoromethyl)pyrrolo[1,2-a]quinoxaline]", "values": [{"measurement": "activity at 5-HT1B serotoninergic receptors", "value": "agonist"}]}
